This note sets out measurements from PubChem BioAssay AID248 (DTP/NCI, 2004).

In the test the test system is L1210 leukemia ip in BDF1 mice, survival T/C. The experiment in a line: NCI In Vivo Anticancer Drug Screen. Data for tumor model L1210 Leukemia (intraperitoneal) in B6D2F1 (BDF1) mice. Particulars: T/C endpoint: mean survival time, higher T/C = longer survival.
[1] abbreviates: dose: 400.0 mg/kg/injection, schedule: Q04DX003 (ip), vehicle: saline with Tween-80.
Where [2] appears, read: dose: 400.0 mg/kg/injection, schedule: Q04DX002 (ip), vehicle: saline.
Where [3] appears, read: dose: 200.0 mg/kg/injection, schedule: Q01DX009 (ip), vehicle: Klucel (hydroxypropylcellulose) (HPC).
The mark [4] stands for this setting: dose: 400.0 mg/kg/injection, schedule: Q01DX009 (ip), vehicle: Klucel (hydroxypropylcellulose) (HPC).
Setting [5] is: dose: 400.0 mg/kg/injection, schedule: Q01DX009 (ip), vehicle: saline with Tween-80.
The mark [6] stands for this setting: dose: 200.0 mg/kg/injection, schedule: Q04DX003 (ip), vehicle: saline.
Setting [7] is: dose: 400.0 mg/kg/injection, schedule: Q04DX003 (ip), vehicle: saline.
[8] abbreviates: dose: 200.0 mg/kg/injection, schedule: Q01DX009 (ip), vehicle: saline.

The list is a part of this screen's results and no random one: it gathers tests that were run many times, whatever their T/C, doses with no T/C, and many T/C values between a quarter and a half above the control. Other doses and runs of a compound stand elsewhere. T/C gives the treated animals as a percentage of the vehicle group. Some entries give survivors of the animals treated and no T/C: the source holds a T/C of zero for them, seemingly a mark for toxic or unscored doses. Some survivor counts are full or nearly so, which does not show that the dose was tolerated: survival well below the control is almost never listed, so the zero probably covers shortened survival too. Counts of survivors are from the toxicity check (mostly the fifth day) where no day follows; animals may have died later. Schedules are NCI's codes, read here as Q, the interval in days (D) or hours (H), X, the number of doses. Some entries hold several experiments; their values stand side by side, smallest first. For survival time, this PubChem deposit counts one and a half times the control or more as active, and values a quarter to a half above the control carry no call in these data; other NCI protocols may use other cut-offs. Some T/C values carry the count of animals alive at the toxicity check (mostly the fifth day); without a count, all were alive then.

Regarding `NC(=S)c1c(N)n(C2OC(CO)C(O)C2O)c2ncnc(N)c12` (stereo not drawn), the T/C (dose: 25.0 mg/kg/injection, schedule: Q01DX005 (ip), vehicle: saline) was 137 % of control [4 of 6 alive]. Further, the survivor count (dose: 50.0 mg/kg/injection, schedule: Q01DX005 (ip), vehicle: saline) is listed as 0 of 6; the survivor count (dose: 100.0 mg/kg/injection, schedule: Q01DX005 (ip), vehicle: saline) was 0 of 6; the survivor count (dose: 200.0 mg/kg/injection, schedule: Q01DX005 (ip), vehicle: saline) is on record as 0 of 6. Consider `CN(Cc1ccccc1)c1ccc(SC#N)cc1`, for which the survivor count (dose: 400.0 mg/kg/injection, schedule: Q01DX001 (ip), vehicle: saline) is given as 2 of 4.

For the molecule `c1cc2c3c(c1)ncn3CCC2`, the survivor count under setting [1] was 1 of 6. Regarding `CC(=O)c1ccccc1N1CCCCC1`, the survivor count under setting [2] is 0 of 3. As to `Cc1cc(C)c(C(=O)c2no[n+]([O-])c2C(=O)c2c(C)cc(C)c(Br)c2C)c(C)c1Br`, the survivor count (dose: 100.0 mg/kg/injection, schedule: Q04DX003 (ip), vehicle: saline with Tween-80) is recorded as 6 of 6 and the survivor count under setting [1] was 6 of 6. Take `CC(C)c1ccc(/C=C(\C(=O)O)c2cccc3ccccc23)cc1`: the survivor count under setting [3] is 5 of 6 and the survivor count under setting [4] is given as 2 of 6.

With `CCSc1ccc2c(cc1=O)C(NC(=O)NC)CCc1cc(OC)c(OC)c(OC)c1-2` (stereo not drawn), the survivor count is reported as 5 of 6 (dose: 100.0 mg/kg/injection, schedule: Q01DX009 (ip), vehicle: Klucel (hydroxypropylcellulose) (HPC)); 2 of 6 under setting [3]; 0 of 6 under setting [4].

On to `Cc1cc(-c2ccc(N3C(=O)C=CC3=O)c(C)c2)ccc1N1C(=O)C=CC1=O`, for which the survivor count (dose: 400.0 mg/kg/injection, schedule: Q04DX003 (ip), vehicle: Klucel (hydroxypropylcellulose) (HPC)) was 0 of 6.

Consider `CN(C)[C](=O)[Pb]([c]1ccccc1)([c]1ccccc1)[c]1ccccc1`, for which the survivor count (dose: 400.0 mg/kg/injection, schedule: Q04DX002 (ip), vehicle: saline with Tween-80) is recorded as 3 of 3. In the case of `N#Cc1c[nH]n2c(=S)ncnc12`, under setting [5], the survivor count is reported as 1 of 6.

Regarding `C[N+](C)(C)N1C(=O)C2C3c4ccccc4C(C2C1=O)[n+]1ccccc13` (stereo not drawn), the survivor count was 0 of 6 (dose: 37.5 mg/kg/injection, schedule: Q01DX001 (ip), vehicle: other); 3 of 6 (dose: 75.0 mg/kg/injection, schedule: Q01DX001 (ip), vehicle: other); 0 of 6 (dose: 150.0 mg/kg/injection, schedule: Q01DX001 (ip), vehicle: other); 0 of 6 (dose: 300.0 mg/kg/injection, schedule: Q01DX001 (ip), vehicle: other). Consider `O=C(O)c1ccc(CBr)c(CBr)c1`, for which the survivor count (dose: 25.0 mg/kg/injection, schedule: Q04DX003 (ip), vehicle: saline with Tween-80) is on record as 6 of 6. Take `O=C1C2C(C(=O)N1c1ccc(O)cc1)C1c3ccccc3C2C2CCCCN21` (stereo not drawn): the survivor count is listed as 2 of 6 under setting [6] and 0 of 6 under setting [7]. `CCCCC[C@@H](CN(C)C)[C@H](O)/C=C/c1ccc(Cl)cc1`: the survivor count is, setting by setting: (dose: 100.0 mg/kg/injection, schedule: Q01DX009 (ip), vehicle: saline) 4 of 6; (dose: 100.0 mg/kg/injection, schedule: Q04DX003 (ip), vehicle: saline) 3 of 6 and 5 of 6; under setting [8], 0 of 6; under setting [6], 2 of 6; under setting [7], 0 of 6 and 1 of 6. With `COC1OC(COC(=S)SCC2OC(OC)C(OC)C(OC)C2OC)C(OC)C(OC)C1OC` (stereo not drawn), the survivor count (dose: 100.0 mg/kg/injection, schedule: Q04DX002 (ip), vehicle: Klucel (hydroxypropylcellulose) (HPC)) was 3 of 3.

On to `COc1ccc2c(c1)C13CCCCC1C(C2)N(CC1(c2ccccc2)CC1)CC3` (stereo not drawn), for which, under setting [4], the survivor count is given as 0 of 6. Consider `CCC(C)N=C(N)C(N)=NC(C)CC` (stereo not drawn), for which, under setting [2], the survivor count was 1 of 3. For the molecule `CCCCCCCCCCCCCC[n+]1cccc(C#N)c1`, the survivor count was 1 of 6 (dose: 75.0 mg/kg/injection, schedule: Q01DX001 (ip), vehicle: saline); 1 of 6 (dose: 150.0 mg/kg/injection, schedule: Q01DX001 (ip), vehicle: saline); 1 of 6 (dose: 300.0 mg/kg/injection, schedule: Q01DX001 (ip), vehicle: saline). Take `CC[As](=O)(O)CC(C)C`: the survivor count by setting is: under setting [8], 0 of 6; (dose: 400.0 mg/kg/injection, schedule: Q01DX009 (ip), vehicle: saline) 0 of 6. For the molecule `CCOC(=O)CNC(=O)Nc1ccc(C(=O)OCC)cc1`, the survivor count under setting [5] is given as 6 of 6.
